± gives the standard deviation of the averaged measurements. Differences between knockout arms are mostly noise.
Tested on: MDA-MB-231
Test: relative cell number vs DMSO control (72 h) (% of DMSO); higher = less growth inhibition (more cells)
Description: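 QMAP-Seq: a pool of 5 breast cancer cell lines (ZR-75-1, SKBR3, HCC-38, MDA-MB-231, BT-20), each carrying 12 doxycycline-inducible Cas9 sgRNA perturbations (11 knockouts plus non-targeting sgNT), was treated with compounds for 72 h at four 10-fold doses (10 nM-10 uM or 1 nM-1 uM range). Barcodes were amplified and sequenced, and cell number was interpolated from 293T spike-in standard curves. The result is expressed as % of the median of DMSO wells. Two biological replicates.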

[1] = sgRNA knockout: sgATF3, 1000 nM
[2] = sgRNA knockout: sgATF4, 1000 nM
[3] = sgRNA knockout: sgATF6, 1000 nM
[4] = sgRNA knockout: sgATG7, 1000 nM
[5] = sgRNA knockout: sgERN1, 1000 nM
[6] = sgRNA knockout: sgHSF1, 1000 nM
[7] = sgRNA knockout: sgHSF2, 1000 nM
[8] = sgRNA knockout: sgKEAP1, 100 nM
[9] = sgRNA knockout: sgKEAP1, 1000 nM
[10] = sgRNA knockout: sgNFE2L2, 10 nM
[11] = sgRNA knockout: sgNFE2L2, 100 nM
[12] = sgRNA knockout: sgNFE2L2, 1000 nM
[13] = sgRNA knockout: sgSLC35F2, 1 nM
[14] = sgRNA knockout: sgSLC35F2, 10 nM
[15] = sgRNA knockout: sgSLC35F2, 100 nM
[16] = sgRNA knockout: sgSLC35F2, 1000 nM
[17] = sgRNA knockout: sgXBP1, 1000 nM

C[C@]12CC[C@H](O)CC1=CC[C@@H]1[C@@H]2CC[C@]2(C)C(c3cccnc3)=CC[C@@H]12 [Abiraterone]
relative cell number (sgRNA knockout: sgATF3, 1 nM): 151 ± 37
relative cell number (sgRNA knockout: sgATF3, 10 nM): 123 ± 12
relative cell number (sgRNA knockout: sgATF3, 100 nM): 122 ± 3.8
relative cell number [1]: 119 ± 38
relative cell number (sgRNA knockout: sgATF4, 1 nM): 109 ± 55
relative cell number (sgRNA knockout: sgATF4, 10 nM): 117 ± 31
relative cell number (sgRNA knockout: sgATF4, 100 nM): 95.2 ± 56
relative cell number [2]: 127 ± 34
relative cell number (sgRNA knockout: sgATF6, 1 nM): 92.4 ± 22
relative cell number (sgRNA knockout: sgATF6, 10 nM): 81.8 ± 6.2
relative cell number (sgRNA knockout: sgATF6, 100 nM): 115 ± 51
relative cell number [3]: 119 ± 33
relative cell number (sgRNA knockout: sgATG7, 1 nM): 106 ± 28
relative cell number (sgRNA knockout: sgATG7, 10 nM): 127 ± 13
relative cell number (sgRNA knockout: sgATG7, 100 nM): 100 ± 24
relative cell number [4]: 108 ± 20
relative cell number (sgRNA knockout: sgERN1, 1 nM): 112 ± 17
relative cell number (sgRNA knockout: sgERN1, 10 nM): 120 ± 20
relative cell number (sgRNA knockout: sgERN1, 100 nM): 110 ± 23
relative cell number [5]: 97.7 ± 3.4
relative cell number (sgRNA knockout: sgHSF1, 1 nM): 100 ± 21
relative cell number (sgRNA knockout: sgHSF1, 10 nM): 111 ± 13
relative cell number (sgRNA knockout: sgHSF1, 100 nM): 99.2 ± 11
relative cell number [6]: 103 ± 16
relative cell number (sgRNA knockout: sgHSF2, 1 nM): 98.7 ± 25
relative cell number (sgRNA knockout: sgHSF2, 10 nM): 109 ± 8.1
relative cell number (sgRNA knockout: sgHSF2, 100 nM): 131 ± 8.8
relative cell number [7]: 104 ± 9
relative cell number (sgRNA knockout: sgKEAP1, 1 nM): 107 ± 31
relative cell number (sgRNA knockout: sgKEAP1, 10 nM): 112 ± 20
relative cell number [8]: 105 ± 5.4
relative cell number [9]: 92.3 ± 8.6
relative cell number (sgRNA knockout: sgNFE2L2, 1 nM): 102 ± 21
relative cell number [10]: 105 ± 2.1
relative cell number [11]: 89.99 ± 0.83
relative cell number [12]: 122 ± 19
relative cell number [13]: 113 ± 9.1
relative cell number [14]: 102 ± 29
relative cell number [15]: 104 ± 28
relative cell number [16]: 113 ± 16
relative cell number (sgRNA knockout: sgXBP1, 1 nM): 110 ± 18
relative cell number (sgRNA knockout: sgXBP1, 10 nM): 103 ± 10
relative cell number (sgRNA knockout: sgXBP1, 100 nM): 123 ± 25
relative cell number [17]: 121 ± 5.5

CC(C)(C#N)c1cc(Cn2cncn2)cc(C(C)(C)C#N)c1 [Anastrozole]
relative cell number (sgRNA knockout: sgATF3, 1 nM): 130 ± 22
relative cell number (sgRNA knockout: sgATF3, 10 nM): 124 ± 16
relative cell number (sgRNA knockout: sgATF3, 100 nM): 112 ± 2.5
relative cell number [1]: 100 ± 12
relative cell number (sgRNA knockout: sgATF4, 1 nM): 129 ± 35
relative cell number (sgRNA knockout: sgATF4, 10 nM): 131 ± 62
relative cell number (sgRNA knockout: sgATF4, 100 nM): 123 ± 14
relative cell number [2]: 79 ± 10
relative cell number (sgRNA knockout: sgATF6, 1 nM): 109 ± 12
relative cell number (sgRNA knockout: sgATF6, 10 nM): 101 ± 9.6
relative cell number (sgRNA knockout: sgATF6, 100 nM): 140 ± 11
relative cell number [3]: 102 ± 31
relative cell number (sgRNA knockout: sgATG7, 1 nM): 120 ± 14
relative cell number (sgRNA knockout: sgATG7, 10 nM): 124 ± 12
relative cell number (sgRNA knockout: sgATG7, 100 nM): 116 ± 10
relative cell number [4]: 98.3 ± 2.9
relative cell number (sgRNA knockout: sgERN1, 1 nM): 106 ± 8.8
relative cell number (sgRNA knockout: sgERN1, 10 nM): 97.2 ± 76
relative cell number (sgRNA knockout: sgERN1, 100 nM): 94.6 ± 5.7
relative cell number [5]: 97.1 ± 14
relative cell number (sgRNA knockout: sgHSF1, 1 nM): 105 ± 9.5
relative cell number (sgRNA knockout: sgHSF1, 10 nM): 111 ± 9.1
relative cell number (sgRNA knockout: sgHSF1, 100 nM): 102 ± 19
relative cell number [6]: 112 ± 9.9
relative cell number (sgRNA knockout: sgHSF2, 1 nM): 117 ± 1.9
relative cell number (sgRNA knockout: sgHSF2, 10 nM): 111 ± 16
relative cell number (sgRNA knockout: sgHSF2, 100 nM): 124 ± 15
relative cell number [7]: 96.5 ± 9.4
relative cell number (sgRNA knockout: sgKEAP1, 1 nM): 105 ± 6.3
relative cell number (sgRNA knockout: sgKEAP1, 10 nM): 86.8 ± 2
relative cell number [8]: 100 ± 13
relative cell number [9]: 109 ± 6.3
relative cell number (sgRNA knockout: sgNFE2L2, 1 nM): 125 ± 27
relative cell number [10]: 123 ± 9.8
relative cell number [11]: 123 ± 20
relative cell number [12]: 83.8 ± 5.6
relative cell number [13]: 127 ± 7.4
relative cell number [14]: 118 ± 6.1
relative cell number [15]: 122 ± 5.6
relative cell number [16]: 89 ± 45
relative cell number (sgRNA knockout: sgXBP1, 1 nM): 123 ± 5.8
relative cell number (sgRNA knockout: sgXBP1, 10 nM): 101 ± 14
relative cell number (sgRNA knockout: sgXBP1, 100 nM): 102 ± 24
relative cell number [17]: 118 ± 19

C[C@H]1CCC/C=C/[C@@H]2C[C@H](O)C[C@H]2[C@H](O)/C=C/C(=O)O1 [BrefeldinA]
relative cell number (sgRNA knockout: sgATF3, 10 nM): 122 ± 28
relative cell number (sgRNA knockout: sgATF3, 100 nM): 12.3 ± 7
relative cell number [1]: 3.85 ± 1.1
relative cell number (sgRNA knockout: sgATF3, 10000 nM): 5.56 ± 1.3
relative cell number (sgRNA knockout: sgATF4, 10 nM): 108 ± 29
relative cell number (sgRNA knockout: sgATF4, 100 nM): 8.76 ± 2.9
relative cell number [2]: 2.47 ± 0.25
relative cell number (sgRNA knockout: sgATF4, 10000 nM): 10.3 ± 4.5
relative cell number (sgRNA knockout: sgATF6, 10 nM): 103 ± 60
relative cell number (sgRNA knockout: sgATF6, 100 nM): 13.7 ± 1.7
relative cell number [3]: 5.19 ± 1.3
relative cell number (sgRNA knockout: sgATF6, 10000 nM): 4.61 ± 1.4
relative cell number (sgRNA knockout: sgATG7, 10 nM): 102 ± 13
relative cell number (sgRNA knockout: sgATG7, 100 nM): 10.2 ± 7
relative cell number [4]: 4.82 ± 2.5
relative cell number (sgRNA knockout: sgATG7, 10000 nM): 6.37 ± 1.4
relative cell number (sgRNA knockout: sgERN1, 10 nM): 105 ± 1.2
relative cell number (sgRNA knockout: sgERN1, 100 nM): 14.6 ± 4.7
relative cell number [5]: 3.55 ± 0.095
relative cell number (sgRNA knockout: sgERN1, 10000 nM): 5.72 ± 1.2
relative cell number (sgRNA knockout: sgHSF1, 10 nM): 84.4 ± 8.6
relative cell number (sgRNA knockout: sgHSF1, 100 nM): 11.2 ± 2.2
relative cell number [6]: 7.97 ± 1.8
relative cell number (sgRNA knockout: sgHSF1, 10000 nM): 6.49 ± 0.91
relative cell number (sgRNA knockout: sgHSF2, 10 nM): 83.7 ± 4.5
relative cell number (sgRNA knockout: sgHSF2, 100 nM): 10.6 ± 2
relative cell number [7]: 5.09 ± 2.8
relative cell number (sgRNA knockout: sgHSF2, 10000 nM): 4.65 ± 0.28
relative cell number (sgRNA knockout: sgKEAP1, 10 nM): 106 ± 23
relative cell number [8]: 10.9 ± 2.3
relative cell number [9]: 6.62 ± 3.4
relative cell number (sgRNA knockout: sgKEAP1, 10000 nM): 6.02 ± 2.7
relative cell number [10]: 98.7 ± 16
relative cell number [11]: 14.8 ± 1.2
relative cell number [12]: 5.28 ± 0.86
relative cell number (sgRNA knockout: sgNFE2L2, 10000 nM): 5.96 ± 0.8
relative cell number [14]: 119 ± 27
relative cell number [15]: 14.4 ± 6.6
relative cell number [16]: 5.75 ± 3.4
relative cell number (sgRNA knockout: sgSLC35F2, 10000 nM): 6.35 ± 2
relative cell number (sgRNA knockout: sgXBP1, 10 nM): 106 ± 19
relative cell number (sgRNA knockout: sgXBP1, 100 nM): 20.4 ± 0.88
relative cell number [17]: 6.83 ± 0.2
relative cell number (sgRNA knockout: sgXBP1, 10000 nM): 7.55 ± 3.4

— the supplement of paper PMC7661543
